According to US20140170239A1 (VRIJE UNIVERSITEIT BRUSSEL, published 2014):
Results are given in words; binding and its absence hold for the method and conditions named. Some binding calls cover weakened binding; strength is not graded here. Where no end group is shown, it is not given here.

B1: CGRF1_HUMAN peptide ITTGITL (peptide)
peptide: ITTGITL
notes: spot-synthesized on membrane; also called CGRF1 segment; position Nr 30
B2: METH_HUMAN peptide ILTIGTG (peptide)
peptide: ILTIGTG
notes: spot-synthesized on membrane; also called methionine synthase (METH) segment; position Nr 38
B3: CPNE2_HUMAN peptide ILLIITD (peptide)
peptide: ILLIITD
notes: spot-synthesized on membrane; also called Copine-2 (CPNE2) segment; position Nr 42
B4: ANXA6_HUMAN peptide ILDIITS (peptide)
peptide: ILDIITS
notes: spot-synthesized on membrane; also called annexin-6 peptide fragment; position Nr 29
B5: P73_HUMAN peptide ILIIITL (peptide)
peptide: ILIIITL
notes: spot-synthesized on membrane; also called p73β; position Nr 35
B6: P53_HUMAN peptide ILTIITL (immobilised spot) (peptide)
peptide: ILTIITL
notes: spot-synthesized on membrane; also called p53β; position Nr 1
B7: P63_HUMAN peptide ILIIVTL (peptide)
peptide: ILIIVTL
notes: spot-synthesized on membrane; also called p63β; position Nr 16

Molecular target: T1, biotinylated p53β peptide (human, also: biotinylated, site not given here)
T1 construct: also called biotinylated p53-aggregating peptide
T1 peptide: ILTIITL
Assay: peptide-binding assay: peptide spots on membrane, biotinylated p53β peptide, streptavidin-HRP

binding, binds:
B1, B2, B3, B4, B5, B6, B7
